Laboratory results from publication PMC3171476.
No constants are given. Whether binding was seen depends on the method and setting. Binding seen in cells or lysates may run through a third protein. Some binding calls cover weakened binding; strength is not graded here. Where a sequence is shown, tags or fusion partners need not be part of it.

Key:
[1] = biological target: T1, Lsk1-HA (Lsk1p, Ser-2 CTD kinase catalytic subunit) (Schizosaccharomyces pombe) (UniProt O14098); assay: co-IP; anti-HA immunoprecipitation (Protein G Dynabeads) from 2 mg of native S. pombe cell extract (1% IGEPAL CA630, 150 mM NaCl, 50 mM Tris-HCl pH 8.0); immunoblot with anti-myc
T1 sequence: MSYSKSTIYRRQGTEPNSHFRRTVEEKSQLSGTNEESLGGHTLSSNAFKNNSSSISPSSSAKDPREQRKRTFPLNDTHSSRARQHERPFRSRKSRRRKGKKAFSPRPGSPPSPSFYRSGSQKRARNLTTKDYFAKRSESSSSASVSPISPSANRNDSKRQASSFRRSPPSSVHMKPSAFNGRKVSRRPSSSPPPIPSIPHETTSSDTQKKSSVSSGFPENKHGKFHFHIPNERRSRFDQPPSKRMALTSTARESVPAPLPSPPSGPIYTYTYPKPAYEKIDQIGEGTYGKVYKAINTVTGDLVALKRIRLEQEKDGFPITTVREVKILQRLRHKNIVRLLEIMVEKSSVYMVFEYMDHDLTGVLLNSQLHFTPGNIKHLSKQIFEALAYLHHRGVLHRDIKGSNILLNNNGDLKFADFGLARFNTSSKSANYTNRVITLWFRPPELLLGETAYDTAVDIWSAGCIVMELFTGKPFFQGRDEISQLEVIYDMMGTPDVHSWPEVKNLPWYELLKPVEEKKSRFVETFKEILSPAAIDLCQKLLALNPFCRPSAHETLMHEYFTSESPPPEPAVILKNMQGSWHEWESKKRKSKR

[2] = biological target: T2, Lsc1-HA (Lsc1p, cyclin subunit of the Ser-2 CTD kinase complex) (Schizosaccharomyces pombe) (UniProt O59748); assay: as above
T2 sequence: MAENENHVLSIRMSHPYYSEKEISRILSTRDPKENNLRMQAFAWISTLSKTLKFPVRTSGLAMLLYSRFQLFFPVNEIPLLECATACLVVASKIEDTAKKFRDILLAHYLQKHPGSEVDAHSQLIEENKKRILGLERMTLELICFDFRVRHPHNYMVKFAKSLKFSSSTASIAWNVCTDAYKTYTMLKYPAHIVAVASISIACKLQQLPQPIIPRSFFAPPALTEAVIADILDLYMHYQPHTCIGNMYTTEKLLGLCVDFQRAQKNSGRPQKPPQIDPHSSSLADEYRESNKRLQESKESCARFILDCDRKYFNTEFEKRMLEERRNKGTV

binding [1]: binds
binding [2]: binds
B1: Lsg1-myc fusion protein (Lsg1p, latrunculin sensitive CTD kinase gamma subunit) (protein, UniProt Q9USJ8 1-218)
chain: MDPFEGRMTFLQLLGKLNASQFSQIKPAQFAIKHLDLEEDLYSCIWEELESGSFNTRVNIMYFVDTLCEMCLKNGLTGGYLNMISRDICKLVQNVAPIGAAGAANAPEVRKVLQSLHEKKVIDDNQYKDAMATVEAHEQASKSGDTSTSGAISKNDILKRIEEDRERHKRMRENIWAISEPELEAEIAWNTTQGITESDLESLKDEYEKFNECLHATS
